Laboratory results: PubChem BioAssay AID504764 (Drosophila RNAi Screening Center, 2011)
The screen tested about 22,000 reagents; this is a random part of those that have a named target and a result. In the full data, 403 (1.9%) got an active call. 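Unnormalised raw counts per well; ratio z-scores behind the hit calls and whether each hit raises or lowers signal are not deposited.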 Unmarked entries are inactive. Not given: the amount of reagent.

Purpose: 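Knock-downs that raise or lower a Notch target reporter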 (primary screen)
System: Drosophila Kc167 cells
Reagent: long dsRNA against Drosophila genes
Timing: about 5 days (4 days dsRNA, then 24 h after transfection)
Challenge: transfection of constitutively active membrane-tethered Notch lacking the extracellular domain, read 24 h later
Measurement: 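Firefly luciferase from an E(spl)m3 reporter with active Notch, plus control-promoter and uninduced reporter wells for normalisation; unnormalised counts, duplicate wells a and b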
Reading the numbers: induced reporter light, run 1, well a and induced reporter light, run 1, well b: higher = more light from the Notch target reporter with active Notch; control promoter light, run 1, well a and control promoter light, run 1, well b: higher = more light from the viral control promoter (cell number, transfection, viability); uninduced reporter light, run 1, well a: higher = more light from the Notch target reporter without active Notch
Rule for the call: 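Wells with low control signal or poorly matching duplicates excluded; duplicates averaged; per source plate, z beyond ±2 for induced/control log2 ratio or beyond ±1.8 for induced/uninduced marks a hit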
Calls: active = modifier hit (raised or lowered Notch signal); inactive = not a hit

Which result is listed for DppIII (Dipeptidyl aminopeptidase III) [DRSC16241]?
induced reporter light, run 1, well a: 1.33e5; induced reporter light, run 1, well b: 1.39e5; control promoter light, run 1, well a: 99690; control promoter light, run 1, well b: 80440; uninduced reporter light, run 1, well a: 6430

Which result is listed for cv-2 (crossveinless 2) [DRSC03861]?
induced reporter light, run 1, well a: 1.10e5; induced reporter light, run 1, well b: 86945; control promoter light, run 1, well a: 90750; control promoter light, run 1, well b: 1.12e5; uninduced reporter light, run 1, well a: 10775

Which result is listed for cv-2 (crossveinless 2) [DRSC04261]?
induced reporter light, run 1, well a: 59115; induced reporter light, run 1, well b: 51220; control promoter light, run 1, well a: 39975; control promoter light, run 1, well b: 56025; uninduced reporter light, run 1, well a: 2605

For CG13344 [DRSC06378], what does the deposit list?
induced reporter light, run 1, well a: 1.99e5 (active); induced reporter light, run 1, well b: 1.87e5; control promoter light, run 1, well a: 1.23e5; control promoter light, run 1, well b: 1.55e5; uninduced reporter light, run 1, well a: 12628

Individual results from the entries so far:
cv-2 (crossveinless 2) [DRSC04261], control promoter light, run 1, well a = 39975
DppIII (Dipeptidyl aminopeptidase III) [DRSC16241], control promoter light, run 1, well b: 80440

Further records follow:
For CG13334 [DRSC06369], how do the results read?
induced reporter light, run 1, well a: 1.13e5; induced reporter light, run 1, well b: 91265; control promoter light, run 1, well a: 1.04e5; control promoter light, run 1, well b: 1.09e5; uninduced reporter light, run 1, well a: 8700

What did the screen give for LeuRS-m (Leucyl-tRNA synthetase, mitochondrial) [DRSC08595]?
induced reporter light, run 1, well a: 1.46e5; induced reporter light, run 1, well b: 1.32e5; control promoter light, run 1, well a: 83105; control promoter light, run 1, well b: 51690; uninduced reporter light, run 1, well a: 12832

Which result is listed for Sb (Stubble) [DRSC16851]?
induced reporter light, run 1, well a: 2.10e5; induced reporter light, run 1, well b: 2.41e5; control promoter light, run 1, well a: 1.98e5; control promoter light, run 1, well b: 2.08e5; uninduced reporter light, run 1, well a: 18880

Which result is listed for CG14644 [DRSC12230]?
induced reporter light, run 1, well a: 37200; induced reporter light, run 1, well b: 45435; control promoter light, run 1, well a: 34790; control promoter light, run 1, well b: 32350; uninduced reporter light, run 1, well a: 3450

Which result is listed for eIF2Bgamma (eukaryotic translation initiation factor 2B subunit gamma) [DRSC07100]?
induced reporter light, run 1, well a: 1.08e5; induced reporter light, run 1, well b: 1.50e5; control promoter light, run 1, well a: 2.23e5; control promoter light, run 1, well b: 2.29e5; uninduced reporter light, run 1, well a: 10780

With CG12229 [DRSC09868], what was measured?
induced reporter light, run 1, well a: 1.36e5; induced reporter light, run 1, well b: 1.33e5; control promoter light, run 1, well a: 1.89e5; control promoter light, run 1, well b: 1.44e5; uninduced reporter light, run 1, well a: 6730

What did the screen give for kairos [DRSC19972]?
induced reporter light, run 1, well a: 91150; induced reporter light, run 1, well b: 77675; control promoter light, run 1, well a: 65025; control promoter light, run 1, well b: 41770; uninduced reporter light, run 1, well a: 7235

For Trm7-32 (tRNA methyltransferase 7-32) [DRSC15741], what was measured?
induced reporter light, run 1, well a: 1.11e5; induced reporter light, run 1, well b: 1.19e5; control promoter light, run 1, well a: 1.04e5; control promoter light, run 1, well b: 1.05e5; uninduced reporter light, run 1, well a: 11380
